# Laboratory results: PubChem BioAssay AID686943 (Drosophila RNAi Screening Center, 2013)
# Screen: 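Fly genes whose loss alters ERK activation after insulin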 (primary screen)
# System: Drosophila S2R+ haemocyte-like cells expressing YFP-tagged ERK (Rolled)
# Reagents: long dsRNA against Drosophila genes
# Conditions: insulin stimulation versus unstimulated cells; dose and duration not given
# Measurement: 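Per-plate z-scores of phospho-ERK immunostaining normalised to YFP-tagged ERK, measured with and without insulin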
# Reading the numbers: replicate 1, z-score of dpERK with insulin and replicate 2, z-score of dpERK with insulin: higher = more active ERK per ERK-YFP after insulin; replicate 1, z-score of dpERK under basal conditions: higher = more basal active ERK per ERK-YFP; replicate 1, z-score of ERK-YFP with insulin: higher = more YFP-tagged ERK signal
# The deposit covers about 23,000 reagents; this is a random part of those that have a named target and a result. 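Extra replicates exist only for a retested subset of genes; insulin dose and duration not given; both raised and lowered dpERK matter.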 A plus sign joins genes that one reagent is predicted to hit. Not given: the amount of reagent, the time to read-out.
target gene,dsRNA,"replicate 1, z-score of dpERK with insulin","replicate 2, z-score of dpERK with insulin","replicate 1, z-score of dpERK under basal conditions","replicate 1, z-score of ERK-YFP with insulin"
CG14564,DRSC11725,0.45,0.55,0.75,0.34
CG14564,DRSC22388,0.03,1.28,1.15,0.73
ben,DRSC20310,-0.53,-0.2,2.08,0.26
ben,DRSC21261,-0.15,-0.13,0.35,-0.05
mIF3,DRSC06290,0.15,-0.16,0.48,-0.02
CG5860,DRSC15896,-0.47,0.4,0.22,1
CG30485,DRSC06376,1.15,-0.08,-0.26,0.15
Cog7,DRSC16331,1.38,0.03,0.72,0.41
CG11367,DRSC22434,0.39,0.14,0.41,-1.52
Gdi,DRSC03330,0.26,-0.04,-0.25,0.26
CG2224,DRSC15429,-0.77,-0.27,-0.05,1.1
CG13843,DRSC14693,0.78,0,0.22,1.6
loh,DRSC01122,-0.65,0.28,0.08,0.87
loh,DRSC02943,0.87,0.51,-0.52,-0.35
CG16985,DRSC08501,-0.49,-0.73,0.55,0.74
CG32544,DRSC20033,0.08,-0.18,-0.84,-0.14
CG17207,DRSC15198,0,0.81,-0.39,-0.38
Orp8,DRSC15110,1.32,-0.83,0.39,0.02
Orp8,DRSC15712,-0.23,0,-0.48,0.11
Pdhb,DRSC14420,0.01,0.58,0.33,1.25
CG10301,DRSC14226,-0.91,0.13,-0.11,1.04
CG7156,DRSC16207,0.4,-0.2,-0.04,0.76
Nrg,DRSC17573,0.7,-0.26,1.63,-0.02
Nrg,DRSC18688,-0.18,0.07,-0.01,1.12
CG11170,DRSC04090,0.19,0.02,-0.19,0.33
CG3347,DRSC00597,-0.25,-0.83,-0.69,-0.31
CG16753,DRSC08489,0.91,-0.23,0.62,0.77
SLIRP1 + anox,DRSC20542,-0.32,1.26,-0.02,-0.21
Pc,DRSC11873,-3.07,-3.58,0.37,1.55
gig,DRSC11351,-1.76,-1.8,0.58,-2.15
CG12517,DRSC02173,-1.29,-0.21,0.07,1
lncRNA:CR43242,DRSC03827,0.27,0.02,-0.86,0.68
Ppm1,DRSC08260,1.24,0.57,1.72,0.66
Cib2,DRSC04535,0.04,-1.22,-1.19,-0.63
CG3149,DRSC17732,0.51,0.64,-0.07,-0.16
CG32687,DRSC18210,0.63,0.73,0.05,-0.19
CG32687,DRSC18237,0.59,1.14,-0.44,-0.86
CG43064,DRSC09133,-0.31,0.31,1.16,-0.26
CG42299 + CG42300,DRSC19680,0.18,-0.95,0.55,0.06
CG42299 + CG42300,DRSC19815,0.27,-1.09,-0.7,0.64

Reformatted: entries from further up
| target gene | dsRNA | replicate 1, z-score of dpERK with insulin | replicate 2, z-score of dpERK with insulin | replicate 1, z-score of dpERK under basal conditions | replicate 1, z-score of ERK-YFP with insulin |
| --- | --- | --- | --- | --- | --- |
| CG17207 | DRSC15198 | 0 | 0.81 | -0.39 | -0.38 |
| Orp8 | DRSC15110 | 1.32 | -0.83 | 0.39 | 0.02 |
| Orp8 | DRSC15712 | -0.23 | 0 | -0.48 | 0.11 |
| Pdhb | DRSC14420 | 0.01 | 0.58 | 0.33 | 1.25 |
